Here are results for one compound from patent US10112899B2 (ViiV HEALTHCARE UK LIMITED, priority 2014, dated 2018).

This assay relates to HIV in the HTLV-1 transformed cell line MT-4. The experiment in a line: organism not typed. It counts as cell-based. The settings on record: MT4, 96 h.

SMILES strings stand for the structures.

For `Cc1ccc(-c2c(C)c3c(c(C)c2[C@H](OC(C)(C)C)C(=O)O)CN(C(=O)c2cccc(F)c2)C3)c(Cl)c1` [Example 326, (2S)-2-(tert-butoxy)-2-(6-(2-chloro-4-methylphenyl)-2-(3-fluorobenzoyl)-4,7-dimethylisoindolin-5-yl)acetic acid], the half-inhibitory concentration (IC50) was 5 nM.

Broadly, the IC50 is the concentration that gives 50% inhibition.
